# Test results from patent publication US7592367B2, “Compounds from Garcinia hanburyi, their use in treating cancer and method of separating epimers thereof” (priority 2005, dated 2009).
# Tested on: doxorubicin-resistant K562 (K562/R) cell line
# Assay: MTT cytotoxicity assay, doxorubicin-resistant K562
# Type: cell-based, human
# Details: concluded from similar IC50 against K562/R and K562/S
# Method: MTT assay was performed using a reported method. […] Absorbance of untreated controls was taken as 100%. […] An aliquot of the supernatant was analyzed by HPLC.
row,SMILES,Multidrug resistance (MDR) substrate status
1,"CC(C)=CCC[C@]1(C)C=Cc2c(O)c3c(c(CC=C(C)C)c2O1)O[C@]12C(=C[C@@H]4C[C@H]1C(C)(C)O[C@@]2(C/C=C(/C)C(=O)O)C4=O)C3=O (single isomer, unassigned) [Epimer 1, gambogic acid]",not multidrug resistance (MDR) substrates
2,"CC(C)=CCCC1(C)C=Cc2c(O)c3c(c(CC=C(C)C)c2O1)OC12C(=CC4CC1C(C)(C)OC2(CC=C(C)C(=O)O)C4=O)C3=O (single isomer, unassigned; epimer 2) [Epimer 2, epigambogic acid]",not multidrug resistance (MDR) substrates
